The campaign covered roughly 350,000 compounds. About 220 (0.063%) were called active. The shares of active, inactive and inconclusive entries below differ from those in the screen. Calls come from the whole dose curve; as a rule, active = well fitted activation curve with a large enough effect; inconclusive = small, poorly fitted or top-dose-only effect; inactive = no such curve, though single readings can be large or run the other way. A potency beside an inconclusive call is a rough fit, not a confirmed value.
assay: qHTS for Activators of Integrin-Mediated Alleviation for Muscular Dystrophy; conditions: alpha7betagal myoblasts, beta-gal FDG fluorescence, 48 h; activation: at 38.3 µM (top of the series); note: nearly all actives have a fitted effect of over 60% in size;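 for activation: 100% = response of the positive control SU9516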
In short: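 alpha7betagal+/- myoblasts (passage 13, 250/well) treated 48 h at 37C with compounds at 1:260 dilution of DMSO stock. Lysed, then beta-galactosidase activity read as FDG fluorescence (ex 480/em 540) after 30 min, with pre-read for autofluorescence.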
Potency is the fitted concentration of half-maximal effect.

Potency, inactive:
CCOCCC(=O)Nc1nnc(CCc2ccccc2)s1
COc1ccc(CC(NC(C)=O)C(=O)NC2CCN(c3nc(C)cc(C)c3C#N)CC2)c(OC)c1 (stereo not drawn)
CC(C)(C)N(C(=O)Cn1nnc(-c2ccc(F)cc2)n1)C(C(=O)NC1CCCC1)c1ccncc1 (stereo not drawn)
CCS(=O)(=O)N1CCN(C2CCC(C)CC2)CC1 (stereo not drawn)
CN(C)c1cc[n+](CC(=O)N2CCCc3ccccc32)cc1
Cc1cccc(-n2nnc(C(=O)NCc3ccccc3Cl)c2N)c1
O=C(CCC1CCCC1)NNC(=O)c1ccccc1O
CCCOc1ccc(Br)cc1CSC(=N)N
CN(CC(=O)Nc1ccc(F)cc1)CC(=O)N1CCCCCC1
CCn1cc2nc(SCC(=O)Nc3ccc(OC)cc3OC)n(Cc3ccc(OC)cc3)c(=O)c2n1

Potency, inconclusive:
Nc1cc(OC(=O)c2ccc(F)cc2)nn1S(=O)(=O)c1ccc(F)cc1 20 µM [activator, single point]
O=C(CNC(=O)C1CC1)Nc1ccc(F)c(F)c1F 5.01 µM [activator, single point]
Cc1cccc(C)c1NC(=O)COC(=O)c1c2c(nc3ccccc13)/C(=C\c1ccc3c(c1)OCO3)CCC2 11.2 µM [activator, partial curve, poor fit]
O=S(=O)(c1ccccc1)c1nc(-c2ccccc2F)oc1NCc1cccnc1 5.01 µM [activator, single point]
O=C(COc1ccc(Cl)cc1)NCCS(=O)(=O)N1CCN(c2ccccc2F)CC1 2.82 µM [activator, single point]
CCc1ccc(C(=O)Nc2nc3ccccc3[nH]2)cc1 3.55 µM [activator, single point]
O=C(NC(=S)Nc1ccccc1O)c1ccc(Cl)cc1Cl 2 µM [activator, single point]
Cc1ccccc1NCN1C(=O)C2CCC(C)(C1=O)C2(C)C (stereo not drawn) 2.24 µM [activator, partial curve, poor fit]
O=C(NCCC1=CCCCC1)C1CC(=O)N(C2CCCCC2)C1 (stereo not drawn) 28.2 µM [activator, single point]
CCOC(=O)C1=C(C(=O)OCC)c2ccc(OC)c(OC)c2C1 0.355 µM [activator, full curve, poor fit]
CC(=O)NS(=O)(=O)c1ccc(NC(=S)Nc2ccccc2)cc1 4.47 µM [activator, full curve]
Cc1cc2c(ncn2C)c(NS(=O)(=O)c2cc(Cl)ccc2Cl)c1C 0.316 µM [activator, full curve, poor fit]
CCOc1ccc(CCNC(=O)COC(=O)COc2ccc(Br)cc2)cc1OCC 2.82 µM [activator, single point]
COc1cc(NC(=S)N2CCC(C(N)=O)CC2)c(OC)cc1Cl 3.16 µM [activator, partial curve, poor fit]
O=C(c1ccccc1F)N1CCCc2ccccc21 1 µM [activator, partial curve, poor fit]
C/C(CCc1ccc2c(c1)OCO2)=N\NC(=O)c1ccccc1Br 17.8 µM [activator, single point]
Cc1cc2nc(SCCN3CCCC3)[nH]c2cc1C 2 µM [activator, single point]
O=c1c(Cc2ccc(F)cc2)c(O)ccn1CCCN1CCOCC1 28.2 µM [activator, single point]
Cc1ccc(C(=O)CN2C(=O)NC3(CCCCC3C)C2=O)s1 (stereo not drawn) 3.16 µM [activator, single point]
O=C(O)c1ccccc1C(=O)c1cccs1 22.4 µM [activator, single point]
COc1ccc(C(=O)COC(=O)C(O)c2ccccc2)c(OC)c1 (stereo not drawn) 0.447 µM [activator, partial curve, poor fit]
COc1cc(NC(=O)c2ccccc2F)ccc1NC(=O)c1ccccc1Cl 3.55 µM [activator, single point]
CC(C)Oc1ccc(C2CC(=O)N(c3cccc(/C=C/C(=O)O)c3)C2=O)cc1 (stereo not drawn) 3.55 µM [activator, partial curve, poor fit]
O=C(CCN1C(=O)[C@@H]2Cc3ccccc3CN2C1=O)NCc1ccccc1Cl 5.62 µM [activator, partial curve, poor fit]
CC(=O)Nc1c(NC(=O)CC#N)[nH]c2c(c1=O)c(=O)n(C)c(=O)n2C 28.2 µM [activator, single point]
Cc1ccc(C2(C(=O)N3CCC(n4nc(-c5ccccc5)oc4=O)CC3)CC2)cc1 3.16 µM [activator, single point]
CC(C)CNS(=O)(=O)c1ccc(CCC(=O)NCC2CCCO2)cc1 (stereo not drawn) 12.6 µM [activator, partial curve, poor fit]
O=C(c1cc(COc2ccc(F)c(F)c2)on1)N1CCOCC1 10 µM [activator, single point]
CCCS(=O)c1nc(C)cc(C)c1S(C)(=O)=O (stereo not drawn) 2.82 µM [activator, partial curve, poor fit]
Nc1nc2nc(-c3ccc(Cl)cc3)cc(C(F)(F)F)n2n1 5.62 µM [activator, partial curve, poor fit]
C=CCSc1nc(C)cc(C(=O)OCC)c1C#N 2.51 µM [activator, partial curve, poor fit]
Cc1ccccc1CSc1nnc([C@@H]2CCCN2)o1 2.82 µM [activator, single point]

For convenience, 2 of the compounds above:
Potency, inconclusive:
O=S(=O)(c1ccccc1)c1nc(-c2ccccc2F)oc1NCc1cccnc1 5.01 µM [activator, single point]
O=C(COc1ccc(Cl)cc1)NCCS(=O)(=O)N1CCN(c2ccccc2F)CC1 2.82 µM [activator, single point]

Next part:

activation, inactive:
CCOC(=O)C1[C@H]2C(=O)N(CCCOC)C[C@]23C=C[C@H]1O3 (stereo partly drawn) -2.62% [at 7.66 µM]

From PubChem BioAssay AID624291 (National Center for Advancing Translational Sciences (NCATS), 2012)
